# Assay results from PubChem BioAssay AID588590 (National Center for Advancing Translational Sciences (NCATS), 2011).
# By UniProt entry, the sequences of proteins in these tests, tags left out. Where a name states a change or a piece, a line headed by the entry shows the natural chain unless it says otherwise.
# UniProt Q9UNA4: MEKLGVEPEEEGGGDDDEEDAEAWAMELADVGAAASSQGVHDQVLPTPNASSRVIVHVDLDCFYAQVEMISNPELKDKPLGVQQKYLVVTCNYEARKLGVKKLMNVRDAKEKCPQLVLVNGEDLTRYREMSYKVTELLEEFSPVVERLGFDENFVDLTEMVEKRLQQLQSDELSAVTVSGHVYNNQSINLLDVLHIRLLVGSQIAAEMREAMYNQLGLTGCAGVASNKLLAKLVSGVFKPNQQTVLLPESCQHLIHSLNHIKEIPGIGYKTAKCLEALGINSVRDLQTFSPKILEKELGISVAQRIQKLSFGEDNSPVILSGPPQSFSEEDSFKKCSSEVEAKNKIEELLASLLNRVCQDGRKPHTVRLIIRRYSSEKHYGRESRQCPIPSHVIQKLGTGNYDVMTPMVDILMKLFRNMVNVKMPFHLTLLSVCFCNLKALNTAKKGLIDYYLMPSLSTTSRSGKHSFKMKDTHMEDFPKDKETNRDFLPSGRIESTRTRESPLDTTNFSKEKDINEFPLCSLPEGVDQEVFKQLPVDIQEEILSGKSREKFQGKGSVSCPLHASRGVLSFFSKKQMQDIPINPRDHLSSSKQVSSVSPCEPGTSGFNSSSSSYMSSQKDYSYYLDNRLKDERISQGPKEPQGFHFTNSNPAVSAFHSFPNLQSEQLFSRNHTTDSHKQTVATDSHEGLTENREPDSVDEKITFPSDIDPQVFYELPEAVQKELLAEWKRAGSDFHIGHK
# About 4,000 (1%) of roughly 390,000 compounds were called active. This list was built around the results that the source calls inconclusive (neither active nor inactive); the mix of calls is not that of the screen. Calls follow the shape of the dose curve; as a rule, active = well fitted inhibition curve with a large enough effect; inconclusive = small, poorly fitted or top-dose-only effect, or another doubt; inactive = no such curve, though single readings can be large or run the other way. A potency beside an inconclusive call is a rough fit, not a confirmed value.
# Target: DNA polymerase iota (Homo sapiens) (UniProt Q9UNA4)
# Assay: qHTS for Inhibitors of Polymerase Iota
# Conditions: Pol iota fluorescent replication assay, 10 min; series mostly up to 115 µM; activity, negative = inhibition: at the top concentration
# In short: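 Pol iota at 10 nM preincubated 15 min with compounds at room temperature; reaction started with fluorescent substrate, 50 nM final. Fluorescence read kinetically at 0 and 10 min; buffer-only wells as negative control.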
# Potency is read from the fitted curve at half-maximal effect.
Compound,Potency,"activity, negative = inhibition"
O=[N+]([O-])c1ccc(O)c(N=Cc2sc3ccccc3c2O)c1,"inconclusive: 20 µM [inhibitor, partial curve, poor fit]",–
CC(=O)Nc1nc(-c2ccccc2)cc(-c2ccco2)c1C#N,–,inactive: 11.1%
O=C(NCc1ccc2c(c1)OCO2)c1cc(-c2cc(Cl)ccc2O)n[nH]1,"inconclusive: 22.4 µM [inhibitor, partial curve, poor fit]",–
CN(Cc1ccccc1)C(=O)C1CCN(S(=O)(=O)c2cc([N+](=O)[O-])ccc2Cl)CC1,"inconclusive: 39.8 µM [inhibitor, partial curve, poor fit]",–
CN(C(=O)CSc1nnc(Nc2ccccc2)s1)c1c(N)n(Cc2ccccc2)c(=O)[nH]c1=O,–,inactive: -1.35%
O=C(Nc1ccc(OC(F)F)cc1)c1nc(S(=O)(=O)Cc2ccccc2F)ncc1Cl,–,inactive: 9.02%
O=C(CN(c1cccc(C(F)(F)F)c1)S(=O)(=O)c1ccc(Cl)c([N+](=O)[O-])c1)NCc1ccccc1,"inconclusive: 89.1 µM [inhibitor, single point]",–
COc1cccc(-c2nc(NCc3ccccc3)c3ccccc3n2)c1O,"inconclusive: 22.4 µM [inhibitor, partial curve, poor fit]",–
Cc1ccc(/C=C/c2onc(C)c2S(=O)(=O)N2CCC(C(=O)N3CC(C)Oc4ccccc43)CC2)cc1 (centres undefined),–,inactive: -3.22%
O=C(N/N=C/c1ccccc1C(=O)O)c1ccc(COc2cccc3cccnc23)cc1,"inconclusive: 11.2 µM [inhibitor, full curve, poor fit]",–
CC1=CSC2=NC(=O)/C(=C\c3cccn3-c3ccccc3)C(=N)N12,"inconclusive: 39.8 µM [inhibitor, partial curve, poor fit]",–
CCN(Cc1ccccc1)Cc1c(O)ccc2c(=O)c(-c3ccccc3OC)c(C(F)(F)F)oc12,"inconclusive: 89.1 µM [inhibitor, single point]",–
CNC(=S)N/N=C1\C(=O)c2cccc3cccc1c23,–,inactive: 16.7%
COc1ccc(Cl)cc1NS(=O)(=O)c1cccc(C(=O)NC2CCN(Cc3ccccc3)CC2)c1,–,inactive: -2.13%
Cc1cc(=O)[nH]c(/N=C(\N)Nc2cccc3ccccc23)n1,"inconclusive: 25.1 µM [inhibitor, single point]",–
N=c1oc2ccccc2cc1C(=O)NC1CCCCCC1,"inconclusive: 89.1 µM [inhibitor, single point]",–
Cc1cc(=O)oc2cc(O)cc(OCc3ccccc3)c12,"inconclusive: 89.1 µM [inhibitor, single point]",–
Cc1cccc(NC(=O)C2CCCN(S(=O)(=O)c3cccc4nonc34)C2)c1C (centres undefined),–,inactive: 11.5%
O=C(/C=C/c1cccc(Br)c1)Nc1nn[nH]n1,–,inactive: 19.3%
COc1ccc(/C=N/NC(=O)c2ccccc2OC)cc1COc1ccccc1[N+](=O)[O-],–,inactive: -29.3%
O=C(Nc1ccc(Br)cn1)c1coc(=O)c(Br)c1,active: 39.8 µM,–
COc1cccc(-c2sc3ccc(OC)cc3c2C#CCC(C)O)c1 (centres undefined),"inconclusive: 3.55 µM [inhibitor, full curve, poor fit]",–

# Looked up above.
# Entry for `COc1ccc(/C=N/NC(=O)c2ccccc2OC)cc1COc1ccccc1[N+](=O)[O-]` under activity, negative = inhibition: inactive: -29.3%
# Entry for `COc1cccc(-c2nc(NCc3ccccc3)c3ccccc3n2)c1O` under Potency: inconclusive: 22.4 µM [inhibitor, partial curve, poor fit]
# Entry for `O=C(CN(c1cccc(C(F)(F)F)c1)S(=O)(=O)c1ccc(Cl)c([N+](=O)[O-])c1)NCc1ccccc1` under Potency: inconclusive: 89.1 µM [inhibitor, single point]

# Next structures follow.

Compound,Potency,"activity, negative = inhibition"
O=C(O)c1cccc(NN=C2c3ccccc3-c3ccccc32)c1,–,inactive: 43%
Cc1ccc(NC(=O)CSc2nc3ccccc3c3nc(CCn4cncc4C)nn23)cc1F,"inconclusive: 50.1 µM [inhibitor, partial curve, poor fit]",–
CCOc1cccc2sc(N(Cc3cccnc3)C(=O)C3CCCCC3)nc12,–,inactive: -4.32%
CCOC(=O)Cn1c(=NC(=O)c2sc3ccccc3c2Cl)sc2cc(S(N)(=O)=O)ccc21,"inconclusive: 12.6 µM [inhibitor, full curve, poor fit]",–
COc1ccc(CN(C2CCCC2)S(=O)(=O)c2ccc(-n3cnnn3)cc2)cc1OC,"inconclusive: 39.8 µM [inhibitor, single point]",–
Cn1c(=O)cc(OCC(=O)N2CCN(c3ccccc3)CC2)c2ccccc21,–,inactive: 4.97%
CCCCCCCCOC(=O)c1cc([N+](=O)[O-])c(Sc2ncnc3nc[nH]c23)c([N+](=O)[O-])c1,"inconclusive: 39.8 µM [inhibitor, single point]",–
Cc1ccc(CCNC(=O)C2CCN(c3nnc(C)c4c(C)n(-c5ccccc5)nc34)CC2)cc1,"inconclusive: 22.4 µM [inhibitor, partial curve, poor fit]",–
CC(=O)Nc1ccc(S(=O)(=O)N2CCSC2c2ccco2)cc1 (centres undefined),–,inactive: 111%
CCCN(C(=O)c1cccs1)c1nnc(-c2ccncc2)s1,"inconclusive: 22.4 µM [inhibitor, single point]",–
CCN1Cc2c(cc(OC)c(OC)c2OC)-c2ccccc2S1(=O)=O,–,inactive: -11%
COC(=O)c1ccc(NC(=O)c2ccc(NC(=O)c3ccco3)cc2)cc1,"inconclusive: 39.8 µM [inhibitor, single point]",–
COc1cc(/C=C2\SC(=O)N(CC(=O)Nc3ccccc3F)C2=O)cc(Cl)c1O,"inconclusive: 35.5 µM [inhibitor, full curve, poor fit]",–
CCOc1ccccc1Nc1nc2ccccc2n2cnnc12,–,inactive: 15.8%
O=S(=O)(Cc1noc(-c2ccc(Cl)cc2)n1)Cc1ccco1,active: 50.1 µM,–
O=C(N/N=C/C=C/c1ccccc1)c1ccccn1,–,inactive: 11.9%
CCOC(=O)C1CCN(C(=O)Nc2ccc3nc(-c4ccco4)c(-c4ccco4)nc3c2)CC1,active: 2.82 µM,–
C=CCNC(=O)N1c2ccccc2Sc2ccccc21,"inconclusive: 44.7 µM [inhibitor, partial curve, poor fit]",–
Cc1ccc(C(=O)Oc2cc(N)n(S(=O)(=O)c3ccc(C)cc3)n2)cc1,"inconclusive: 79.4 µM [inhibitor, partial curve, poor fit]",–
COc1ccc(/C=N/Nc2nc(NCc3ccco3)nc(Nc3ccc(OC)cc3)n2)cc1,"inconclusive: 112 µM [inhibitor, partial curve, poor fit]",–
Cn1c(=O)c2c(nc(-n3ccnc3)n2Cc2ccc(Cl)cc2Cl)n(C)c1=O,"inconclusive: 79.4 µM [inhibitor, single point]",–
Cc1ccc(NC(=O)CSc2nnc3c(n2)[nH]c2ccccc23)cc1,–,inactive: 26.4%
